Source: patent publication US20250101127A1
Results are given in words; binding and its absence hold for the method and conditions named. Some binding calls cover weakened binding; strength is not graded here.

Target: T1, peptide comprising the PAHGVTS sequence (human)
T1 sequence (peptide): PAHGVTS
Test: circular peptide array

B1: MP1 monoclonal antibody (antibody, V domains shown)
VH: EVKVDETGGGLVQPGRPMKLSCVVSGITFSDYWMNWVRQSPEKGLEWVAQIRNKPYNYETYYSNSVKGRFTISRDDSKSSVYLQMNNLRAEDMGIYYCTWAMITSDGYAMDYWGQGTSVTVSS
VL: DIVMSQSPSSLAVSVGEKVTLICKSSQSLLLSSNQKNYLAWYQQKPGQSPKLLIYWASTRESGVPDRFTGSGSGTDFTLTINSVKAEDLAVYYCQQCFSYPLTFGAGTKLELK
- binding: binds
